Data as given in PubChem BioAssay AID2685 (National Center for Advancing Translational Sciences (NCATS), 2010).
Some of the results follow. The main result of the screen is listed elsewhere. These columns were measured beside it and carry no call. Compounds called inactive in the main read-out are mostly missing here. The note in brackets gives the kind of curve behind each potency; many fits are weak.

Experiment: qHTS Assay for Lipid Storage Modulators in Drosophila S3 Cells;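 for cell number change: cells counted by Cell Tracker Red CMTPX staining in the red channel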
Details: BODIPY lipid droplet fluorescence, 18-24 h; for cell number change: measured here: cell count max response, cells fed with added oleic acid
Procedure, shortened: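 Laser-scanning cytometry quantifies lipid droplet accumulation (500–530 nm total intensity; droplet/cell object ratio) in oleic acid-fed (400 uM added) Drosophila S3 cells treated with a concentration series. 20 uM Triacsin C defined 100% inhibition.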

[1] = measured here: cell number channel AC50, cells fed with added oleic acid
[2] = measured here: lipid fluorescence (Fed channel) AC50, cells fed with added oleic acid

| Compound | cell number change | AC50 [1] | AC50 [2] |
| --- | --- | --- | --- |
| O=C(Nc1cc2c3c(c1)CC(=O)N3CCC2)C1CCCCC1 | 38.9% | 1.64 µM [rising, partial curve] | 6.51 µM [rising, partial curve] |
| CC(C)Sc1nc(-c2ccccc2)cc(=O)[nH]1 | 16.7% |  |  |
| Cc1ccc(S(=O)(=O)NCCC(=O)OCC(=O)NCCc2ccccc2)cc1C | -18.5% | 0.0058 µM [falling, full curve, poor fit] |  |
| CCNS(=O)(=O)c1ccc(CCC(=O)Nc2ccccc2C(=O)OC)cc1 | 18.9% |  | 7.31 µM [rising, partial curve, poor fit] |
| CCc1ccccc1NC(=O)CN1C(=O)C2CCCN2c2ncc(Cl)cc21 (stereo not drawn) |  | 0.231 µM [rising, full curve, poor fit] | 0.259 µM [rising, partial curve, poor fit] |
| CCOC(=O)c1cc(S(=O)(=O)NCC2CCN(Cc3cccc(C)c3)CC2)cn1C | 91.4% | 20.6 µM [rising, partial curve] | 29.1 µM [rising, single point] |
| Cc1cccc(NC(=O)CSc2nnnn2C2CCCC2)c1 | 17.1% |  |  |
| O=C(CSc1nnc(-c2ccco2)o1)c1ccccc1Cl | -54.6% |  |  |
| COc1ccccc1NC(=O)c1ccc2nsnc2c1 |  |  | 8.91 µM [falling, partial curve] |
| Cn1cnnc1-c1cccc(NC(=O)c2cc(F)c(F)cc2Cl)c1 | 145% | 29.1 µM [rising, single point] | 29.1 µM [rising, partial curve] |
| COc1ccccc1NC(=O)N(Cc1cccs1)Cc1cc2cc3c(cc2[nH]c1=O)OCO3 | 21.3% |  | 0.0731 µM [rising, full curve, poor fit] |
| C=CCN(Cc1nc(-c2ccccc2)no1)C(=O)c1ccc2c(c1)OCO2 | 10.4% |  |  |
| CCN(CC)c1cccc(OCC(=O)N2c3ccccc3CC2C)c1 (stereo not drawn) | -3.76% |  | 6.51 µM [falling, single point] |
| Cc1cc(C)c(OCCCCn2cnc3ccccc3c2=O)c(C)c1 | -19% |  | 0.58 µM [falling, full curve] |
| Cn1c(=O)c2c(nc(NCC3CCCO3)n2C)n(C)c1=O (stereo not drawn) | -7.71% |  | 5.8 µM [falling, full curve, poor fit] |
| Cc1cc(=O)oc2cc(OCC(=O)N3CCN(C(=O)C4COc5ccccc5O4)CC3)ccc12 (stereo not drawn) | -15.3% |  | 29.1 µM [falling, single point] |
| C=C(C)CNC(=S)NNC(=O)c1cc(C)oc1C | 15.1% |  | 11.6 µM [rising, partial curve] |
| Oc1ccccc1-c1nc(N2CCN(Cc3ccccc3)CC2)c2ccccc2n1 | 1.62% |  | 16.4 µM [rising, partial curve, poor fit] |
| COc1ccc(/C=C/c2nc(-c3ccccc3O)n[nH]2)cc1OC | -17.9% |  | 23.1 µM [falling, single point] |
| COC(=O)c1ccc(/C=C2/SC(=S)N(CCCC(=O)Nc3ccc(O)cc3)C2=O)cc1 | 12.4% |  | 5.17 µM [rising, single point] |
| Fc1ccc(COc2ccc(Br)cc2CNCc2ccncc2)cc1 | -4.32% |  |  |

A second format for some results above:
Compound,cell number change,AC50 [1],AC50 [2]
CCc1ccccc1NC(=O)CN1C(=O)C2CCCN2c2ncc(Cl)cc21 (stereo not drawn),,"0.231 µM [rising, full curve, poor fit]","0.259 µM [rising, partial curve, poor fit]"
CCOC(=O)c1cc(S(=O)(=O)NCC2CCN(Cc3cccc(C)c3)CC2)cn1C,91.4%,"20.6 µM [rising, partial curve]","29.1 µM [rising, single point]"

The list goes on:

| Compound | cell number change | AC50 [1] | AC50 [2] |
| --- | --- | --- | --- |
| O=C(NCCc1ccccc1)c1ccc2c(c1)OCCCO2 | 18.1% |  |  |
| C=CCn1c(C)nnc1SCC(=O)Nc1oc(C)c2c(C)n[nH]c(=O)c12 |  | 0.13 µM [falling, full curve, poor fit] |  |
| O=C(Cc1ccc(Br)cc1)Nc1ccc(Cl)cc1 |  | 0.00461 µM [falling, full curve, poor fit] | 0.00461 µM [falling, full curve, poor fit] |
| COc1ccc(-c2csc(Nc3ccccc3)[n+]2Cc2ccccc2)cc1 | -52.6% | 1.84 µM [falling, partial curve] | 25.9 µM [rising, single point] |
| O=C(CCn1cnnn1)Nc1ccc(Cl)c(Cl)c1 | -16.2% | 0.00461 µM [falling, full curve, poor fit] |  |
| CN=C(C)C1=C(O)C(C(=O)OC)C(C)(C)CC1=O (stereo not drawn) | -173% | 20.6 µM [falling, partial curve] | 20.6 µM [falling, partial curve] |
| NCCCC[C@@H](C(=O)N1CCNCC1)n1cc(CN)nn1 | 24.9% |  |  |
| CCOC(=O)c1cccc(Nc2nc(C)cc(C)n2)c1 |  |  | 6.51 µM [rising, single point] |
| Nc1cc(Nc2ccccc2)ccn1 | -6.23% |  | 3.26 µM [falling, single point] |
| Cc1ccc(COc2ccc(C(=O)NN)cc2)cc1 | 24.8% |  | 13 µM [rising, partial curve, poor fit] |
| Cc1ccc(C2(C)NC(=O)N(CC(=O)NCc3cccs3)C2=O)cc1 (stereo not drawn) |  | 0.146 µM [falling, full curve, poor fit] | 0.731 µM [falling, partial curve, poor fit] |
| COc1cc(/C=C2/SC(=S)N(c3c(C)n(C)n(-c4ccccc4)c3=O)C2=O)ccc1O | 5.09% |  | 29.1 µM [falling, single point] |
| CSc1ccc(C#N)cc1NC(=O)c1ccc(Cl)cc1Cl |  | 1.03 µM [rising, full curve] | 0.651 µM [rising, full curve] |
| COc1ccccc1-c1nc(-c2cccc(C)c2)no1 | -9.2% |  |  |
| CS(=O)(=O)c1ccc2nc(NC(=O)C3COc4ccccc4O3)sc2c1 (stereo not drawn) | -22.1% |  | 32.6 µM [falling, partial curve, poor fit] |
| C/C(=N/NC(=O)c1cccs1)c1ccco1 | 3.53% |  |  |
| Cc1sc(NC(=S)NC(=O)c2cccs2)nc1-c1ccc(CC(C)C)cc1 | 14.8% |  |  |
| O=C1C2CC=CCC2C(=O)N1CC1CCCO1 (stereo not drawn) | -108% | 25.9 µM [falling, partial curve] | 6.51 µM [falling, single point] |
| CCCOc1ccc(-c2c(C(=O)N/N=C(\C)c3ccco3)nnn2-c2nonc2N)cc1 | -95.4% | 29.1 µM [falling, single point] |  |
| O=C(Cc1ccccc1)Nc1cccc(-c2nnc(-c3ccco3)o2)c1 | -0.862% |  | 1.3 µM [falling, full curve] |
| Cc1cccc(C2N=C(N)Nc3nc4ccccc4n32)c1 (stereo not drawn) | 14.1% |  | 6.51 µM [rising, full curve, poor fit] |

| Compound | cell number change | AC50 [1] | AC50 [2] |
| --- | --- | --- | --- |
| Cc1c(C(=O)Oc2cccc3cccnc23)oc2ccccc12 | 102% |  |  |
| O=C(OCc1c(F)cccc1Cl)c1cc([N+](=O)[O-])ccc1N1CCOCC1 | -4.42% |  |  |
| O=C(Nc1cccc(Cl)c1)c1cc(N=Nc2ccc([N+](=O)[O-])cc2Cl)ccc1O | -46.4% | 0.206 µM [falling, full curve, poor fit] | 20.6 µM [falling, single point] |
| COC(=O)c1ccccc1OS(=O)(=O)N(C)C | -11.8% | 0.00461 µM [falling, full curve, poor fit] | 6.51 µM [falling, single point] |
| CCOc1ccc(Nc2oc(-c3cccc(Cl)c3)nc2C#N)cc1 | -62.1% | 25.9 µM [falling, single point] |  |
| COc1cc(/C=N/NC(=S)N/N=C/c2cc(OC)c(OC)c(OC)c2)cc(OC)c1OC | -83.3% | 23.1 µM [falling, partial curve] | 6.51 µM [rising, partial curve] |
| COc1ccc(C(=O)Nc2nc(-c3ccc(OC)cc3)c(-c3ccc([N+](=O)[O-])cc3)s2)cc1 | 18.4% |  | 14.6 µM [rising, single point] |
| COc1ccccc1OCCCc1c(C)n[nH]c1C | -6.19% |  |  |
| OC(COc1ccc2c(c1)OCO2)CN1CCN(c2ccc(F)cc2)CC1 (stereo not drawn) | 28.7% |  |  |
| CC(=O)c1ccc(NC2=C(N3CCOCC3)C(=O)c3ccccc3C2=O)cc1 | -7.36% |  |  |
| CNc1oc(-c2cccs2)nc1C#N | 9.48% |  | 13 µM [rising, partial curve] |
| C=CCn1c(-c2ccc(N)cc2)nc2ccccc21 | -21.1% |  | 0.517 µM [rising, full curve] |
| COc1cccc(NC(=O)CN(C)C(=O)c2c(C)noc2C)c1 | -46.5% | 29.1 µM [falling, single point] | 10.3 µM [rising, partial curve, poor fit] |
| CCOCCCn1c(=O)c(NC(=O)c2ccc(OCC)cc2)c2n(c1=S)CCCCC2 |  | 0.651 µM [rising, full curve, poor fit] |  |
| COc1ccc(N2CCN(C(=O)c3cn(C)c(=O)c4c3c3ccccc3n4C)CC2)cc1 | 0.209% |  | 0.116 µM [rising, full curve, poor fit] |
| CCS(=O)(=O)NCc1csc(-c2ccccc2)n1 | 16.5% | 0.731 µM [falling, single point] |  |
| Cc1ccccc1N(CC(=O)NCc1ccc2c(c1)OCO2)C(=O)CCC(=O)Nc1ccccn1 | 2.52% |  | 0.461 µM [rising, full curve] |
| OCCN(Cc1ccccc1)c1ncnc2sccc12 | 18.3% |  | 6.51 µM [rising, single point] |
| O=C(CN1C(=O)NC2(CCCC2)C1=O)OCc1ccc(Cl)c(Cl)c1 | -100% | 13 µM [falling, partial curve] |  |
| Cc1ccc(/C=N/Nc2ccnc3cc(Cl)ccc23)c(C)c1 | -81.4% | 5.8 µM [falling, full curve] | 5.17 µM [falling, full curve] |
| Cc1cc(N2C(=O)CC(N3CCN(C(c4ccccc4)c4ccccc4)CC3)C2=O)no1 (stereo not drawn) | 2.13% |  | 0.116 µM [rising, single point] |
